In article PMC10716449:
These are yes or no findings as the source states them, for the method shown.

Target: CENP-A (human), P49450
Test: cryo-EM structure; CENP-A nucleosomes on 601 B-Box DNA (6-10 uM) mixed with a 3-fold molar ratio of full-length CENP-B; 10 mM HEPES pH 7.5, 150 mM NaCl, 2 mM DTT; on ice 30 min; both purified
Conditions: remark: other sources report otherwise

binding: no binding
B1: full-length CENP-B, P07199 1-599 (protein)
chain: MGPKRRQLTFREKSRIIQEVEENPDLRKGEIARRFNIPPSTLSTILKNKRAILASERKYGVASTCRKTNKLSPYDKLEGLLIAWFQQIRAAGLPVKGIILKEKALRIAEELGMDDFTASNGWLDRFRRRHGVVSCSGVARARARNAAPRTPAAPASPAAVPSEGSGGSTTGWRAREEQPPSVAEGYASQDVFSATETSLWYDFLPDQAAGLCGGDGRPRQATQRLSVLLCANADGSEKLPPLVAGKSAKPRAGQAGLPCDYTANSKGGVTTQALAKYLKALDTRMAAESRRVLLLAGRLAAQSLDTSGLRHVQLAFFPPGTVHPLERGVVQQVKGHYRQAMLLKAMAALEGQDPSGLQLGLTEALHFVAAAWQAVEPSDIAACFREAGFGGGPNATITTSLKSEGEEEEEEEEEEEEEEGEGEEEEEEGEEEEEEGGEGEELGEEEEVEEEGDVDSDEEEEEDEESSSEGLEAEDWAQGVVEAGGSFGAYGAQEEAQCPTLHFLEGGEDSDSDSEEEDDEEEDDEDEDDDDDEEDGDEVPVPSFGEAMAYFAMVKRYLTSFPIDDRVQSHILHLEHDLVHVTRKNHARQAGVRGLGHQS
